Like-named read-outs stand apart in the source and are kept apart here. Some entries share one result that the patent states for a list of compounds.
Biological target: T1, Amaranthus tuberculantum Protoporphyrinogen Oxidase (AmPPO) (Amaranthus tuberculatus, UniProt Q0NZW9)
T1 construct: fused on or other part: C-terminal His tag (pET28b vector)
T1 sequence (Q0NZW9 1-534): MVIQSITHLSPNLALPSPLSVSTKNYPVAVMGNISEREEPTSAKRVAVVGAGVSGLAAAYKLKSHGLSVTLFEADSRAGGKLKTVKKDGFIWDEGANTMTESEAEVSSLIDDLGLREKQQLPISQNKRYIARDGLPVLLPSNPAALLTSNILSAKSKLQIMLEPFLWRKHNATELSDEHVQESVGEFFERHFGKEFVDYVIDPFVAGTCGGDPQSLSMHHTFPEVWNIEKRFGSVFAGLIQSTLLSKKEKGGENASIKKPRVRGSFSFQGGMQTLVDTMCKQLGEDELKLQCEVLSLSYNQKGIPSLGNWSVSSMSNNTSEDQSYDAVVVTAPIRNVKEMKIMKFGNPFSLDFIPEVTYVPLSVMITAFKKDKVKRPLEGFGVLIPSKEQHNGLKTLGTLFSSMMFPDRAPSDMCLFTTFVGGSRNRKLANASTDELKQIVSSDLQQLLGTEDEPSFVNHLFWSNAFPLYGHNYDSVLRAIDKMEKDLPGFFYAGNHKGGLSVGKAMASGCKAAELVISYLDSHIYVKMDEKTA
Assay: PPO in vitro assay (AmPPO)
Type: biochemical

CN(C)S(=O)(=O)NC(=O)CN1C(=O)C(F)(F)Oc2cc(F)c(-c3c(F)c(F)c(F)c(F)c3F)cc21 [Compound 15, N-(N,N-dimethylsulfamoyl)-2-(2,2,7-trifluoro-3-oxo-6-(perfluorophenyl)-2,3-dihydro-4H-benzo[b][1,4]oxazin-4-yl)acetamide]
IC50: < 100 nM
IC50 (Example 17b): < 100 nM

COC(=O)[C@H](C)N1C(=O)COc2ccc(-c3c(F)c(F)c(F)c(F)c3F)cc21 [Compound 41, methyl (S)-2-(3-oxo-6-(perfluorophenyl)-2,3-dihydro-4H-benzo[b][1,4]oxazin-4-yl)propanoate]
IC50: < 100 nM
IC50 (Example 17b): < 100 nM

COC(=O)c1cccc(N2C(=O)C(F)(F)Oc3cc(F)c(-c4c(F)c(F)c(F)c(F)c4F)cc32)c1 [Compound 55, methyl 3-(2,2,7-trifluoro-3-oxo-6-(perfluorophenyl)-2,3-dihydro-H-benzo[b][1,4]oxazin-4-yl)benzoate]
IC50: < 100 nM
IC50 (Example 17b): < 100 nM

CN(CC(=O)O)C(=O)CN1C(=O)C(F)(F)Oc2cc(F)c(-c3c(F)c(F)c(F)c(F)c3F)cc21 [Compound 85, N-methyl-N-(2-(2,2,7-trifluoro-3-oxo-6-(perfluorophenyl)-2,3-dihydro-4H-benzo[b][1,4]oxazin-4-yl)acetyl)glycine]
IC50: < 100 nM
IC50 (Example 17b): < 100 nM

COC(=O)CN1C(=O)C(F)(F)Oc2cc(Cl)c(-c3c(F)c(F)c(F)c(F)c3F)cc21 [Compound 160, methyl 2-(7-chloro-2,2-difluoro-3-oxo-6-(perfluorophenyl)-2,3-dihydro-4H-benzo[b][1,4]oxazin-4-yl)acetate]
IC50 (Example 17b): < 100 nM

COC(=O)C1(N2C(=O)C(F)(F)Oc3cc(F)c(-c4c(F)c(F)c(F)c(F)c4F)cc32)CC1 [Compound 20, methyl 1-(2,2,7-trifluoro-3-oxo-6-(perfluorophenyl)-2,3-dihydro-4H-benzo[b][1,4]oxazin-4-yl)cyclopropane-1-carboxylate]
IC50: < 100 nM
IC50 (Example 17b): < 100 nM

CCOC(=O)[C@@H](C)N1C(=O)C(F)(F)Oc2cc(F)c(-c3c(F)c(F)c(F)c(F)c3F)cc21 [Compound 36, ethyl (R)-2-(2,2,7-trifluoro-3-oxo-6-(perfuorophenyl)-2,3-dihydro-4H-benzo[b][1,4]oxazin-4-yl)propanoate]
IC50: < 100 nM
IC50 (Example 17b): < 100 nM

COC(=O)[C@@H](OC)N1C(=O)C(F)(F)Oc2cc(F)c(-c3c(F)c(F)c(F)c(F)c3F)cc21 [Compound 186, methyl (R)-2-methoxy-2-(2,2,7-trifluoro-3-oxo-6-(perfluorophenyl)-2,3-dihydro-4H-benzo[b][1,4]oxazin-4-yl)acetate]
IC50 (Example 17b): < 100 nM

O=C(O)[C@@H]1CCCCN1C(=O)CN1C(=O)C(F)(F)Oc2cc(F)c(-c3c(F)c(F)c(F)c(F)c3F)cc21 [Compound 110, (S)-1-(2-(2,2,7-trifluoro-3-oxo-6-(perfluorophenyl)-2,3-dihydro-4H-benzo[b][1,4]oxazin-4-yl)acetyl)piperidine-2-carboxylic acid]
IC50: < 100 nM
IC50 (Example 17b): < 100 nM

COC(=O)[C@@H]1CN(C(C)=O)CCN1C(=O)CN1C(=O)C(F)(F)Oc2cc(F)c(-c3c(F)c(F)c(F)c(F)c3F)cc21 [Compound 146, methyl (0.5)-4-acetyl-1-(2-(2,2,7-trifluoro-3-oxo-6-(perfluorophenyl)-2,3-dihydro-4H-benzo[b][1,4]oxazin-4-yl)acetyl)piperazine-2-carboxylate]
IC50: < 100 nM
IC50 (Example 17b): < 100 nM

COC(=O)[C@H](C)N1C(=O)C(F)(F)Oc2cc(F)c(-c3c(F)c(F)cc(F)c3F)cc21 [Compound 66, methyl (S)-2-(2,2,7-trifluoro-3-oxo-6-(2,3,5,6-tetrafluorophenyl)-2,3-dihydro-4H-benzo[b][1,4]oxazin-4-yl)propanoate]
IC50: < 100 nM
IC50 (Example 17b): < 100 nM

C[C@@H](C(=O)N(C)CCC(=O)O)N1C(=O)C(F)(F)Oc2cc(F)c(-c3c(F)c(F)c(F)c(F)c3F)cc21 [Compound 134, (S)-3-(N-methyl-2-(2,2,7-trifluoro-3-oxo-6-(perfluorophenyl)-2,3-dihydro-4H-benzo[b][1,4]oxazin-4-yl)propanamido)propanoic acid]
IC50: < 100 nM
IC50 (Example 17b): < 100 nM

COC(=O)[C@@H](C(C)C)N1C(=O)C(F)(F)Oc2cc(F)c(-c3c(F)c(F)c(F)c(F)c3F)cc21 [Compound 153, methyl (R)-3-methyl-2-(2,2,7-trifluoro-3-oxo-6-(perfluorophenyl)-2,3-dihydro-4H-benzo[b][1,4]oxazin-4-yl)butanoate]
IC50 (Example 17b): < 100 nM

CON(C)C(=O)CN1C(=O)C(F)(F)Oc2cc(F)c(-c3c(F)c(F)c(F)c(F)c3F)cc21 [Compound 97, N-methoxy-N-methyl-2-(2,2,7-trifluoro-3-oxo-6-(perfluorophenyl)-2,3-dihydro-4H-benzo[b][1,4]oxazin-4-yl)acetamide]
IC50: < 100 nM
IC50 (Example 17b): < 100 nM

O=C(O)c1ccccc1CN1C(=O)C(F)(F)Oc2cc(F)c(-c3c(F)c(F)c(F)c(F)c3F)cc21 [Compound 5, 2-((2,2,7-trifluoro-3-oxo-6-(perfluorophenyl)-2,3-dihydro-4H-benzo[b][1,4]oxazin-4-yl)methyl)benzoic acid]
IC50: < 100 nM
IC50 (Example 17b): < 100 nM

C[C@@H](C(=O)O)N1C(=O)C(F)(F)Oc2cc(F)c(-c3c(F)c(F)cc(F)c3F)cc21 [Compound 68, (S)-2-(2,2,7-trifluoro-3-oxo-6-(2,3,5,6-tetrafluorophenyl)-2,3-dihydro-4H-benzo[b][1,4]oxazin-4-yl)propanoic acid]
IC50 (Example 17b): < 1000 nM

COC(=O)c1ccc(CN2C(=O)C(F)(F)Oc3cc(F)c(-c4c(F)c(F)c(F)c(F)c4F)cc32)cc1 [Compound 26, methyl 4-((2,2,7-trifluoro-3-oxo-6-(perfluorophenyl)-2,3-dihydro-4H-benzo[b][1,4]oxazin-4-yl)methyl)benzoate]
IC50: < 100 nM
IC50 (Example 17b): < 100 nM

COC(=O)CN1C(=O)C(F)(F)Oc2cc(F)c(-c3c(F)c(F)c(C(F)(F)F)c(F)c3F)cc21 [Compound 62, methyl 2-(2,2,7-trifluoro-3-oxo-6-(2,3,5,6-tetrafluoro-4-(trifluoromethyl)phenyl)-2,3-dihydro-4H-benzo[b][1,4]oxazin-4-yl)acetate]
IC50: < 100 nM
IC50 (Example 17b): < 100 nM

C[C@@H](C(=O)O)N1C(=O)C(F)(F)Oc2cc(F)c(-c3c(F)c(F)c(F)c(F)c3F)cc21 [Compound 11, (S)-2-(2,2,7-trifluoro-3-oxo-6-(perfluorophenyl)-2,3-dihydro-4H-benzo[b][1,4]oxazin-4-yl)propanoic acid]
IC50: < 100 nM
IC50 (Example 17b): < 100 nM

CC(C)OC(=O)[C@@H](C)N1C(=O)C(F)(F)Oc2cc(F)c(-c3c(F)c(F)c(F)c(F)c3F)cc21 [Compound 38, isopropyl (R)-2-(2,2,7-trifluoro-3-oxo-6-(perfluorophenyl)-2,3-dihydro-4H-benzo[b][1,4]oxazin-4-yl)propanoate]
IC50: < 100 nM
IC50 (Example 17b): < 100 nM

O=C(O)CN1C(=O)C(F)(F)Oc2cc(F)c(-c3c(F)c(F)c(C(F)(F)F)c(F)c3F)cc21 [Compound 63, 2-(2,2,7-trifluoro-3-oxo-6-(2,3,5,6-tetrafluoro-4-(trifluoromethyl)phenyl)-2,3-dihydro-4H-benzo[b][1,4]oxazin-4-yl)acetic acid]
IC50: < 100 nM
IC50 (Example 17b): < 100 nM

O=C(O)C1CCN(C(=O)CN2C(=O)C(F)(F)Oc3cc(F)c(-c4c(F)c(F)c(F)c(F)c4F)cc32)CC1 [Compound 89, 1-(2-(2,2,7-trifluoro-3-oxo-6-(perfluorophenyl)-2,3-dihydro-4H-benzo[b][1,4]oxazin-4-yl)acetyl)piperidine-4-carboxylic acid]
IC50: < 100 nM
IC50 (Example 17b): < 100 nM

O=C(O)C(=O)CN1C(=O)C(F)(F)Oc2cc(F)c(-c3c(F)c(F)c(F)c(F)c3F)cc21 [Compound 102, 2-2-oxo-3-(2,2,7-trifluoro-3-oxo-6-(perfluorophenyl)-2,3-dihydro-4H-benzo[b][1,4]oxazin-4-yl)propanoic acid]
IC50: < 100 nM
IC50 (Example 17b): < 100 nM

CCC[C@@H](C(=O)O)N1C(=O)C(F)(F)Oc2cc(F)c(-c3c(F)c(F)c(F)c(F)c3F)cc21 [Compound 117, (S)-2-(2,2,7-trifluoro-3-oxo-6-(perfluorophenyl)-2,3-dihydro-4H-benzo[b][1,4]oxazin-4-yl)pentanoic acid]
IC50: < 100 nM
IC50 (Example 17b): < 100 nM

CC[C@H](C(=O)OC)N1C(=O)C(F)(F)Oc2cc(F)c(-c3c(F)c(F)c(F)c(F)c3F)cc21 [Compound 50, methyl (R)-2-(2,2,7-trifluoro-3-oxo-6-(perfluorophenyl)-2,3-dihydro-4H-benzo[b][1,4]oxazin-4-yl)butanoate]
IC50: < 100 nM
IC50 (Example 17b): < 100 nM

C[C@H](C(=O)O)N1C(=O)C2(CC2)Oc2cc(F)c(-c3c(F)c(F)c(F)c(F)c3F)cc21 [Compound 34, (R)-2-(7-fluoro-3-oxo-6-(perfluorophenyl)spiro-[benzo[b][1,4]oxazine-2,1′-cyclopropan]-4(311)-yl)propanoic acid]
IC50 (Example 17b): < 1000 nM

COC(=O)[C@H](C)N1C(=O)C2(CC2)Oc2cc(F)c(-c3c(F)c(F)c(F)c(F)c3F)cc21 [Compound 31, methyl (S)-2-(7-fluoro-3-oxo-6-(perfluorophenyl)spiro[benzo[b][1,4]oxazine-2,1′-cyclopropan]-4(3H)-yl)propanoate]
IC50: < 100 nM
IC50 (Example 17b): < 100 nM
